Measurements taken from patent publication US20180036302A1, “TREATMENT OF MULTIPLE SCLEROSIS WITH COMBINATION OF LAQUINIMOD AND A STATIN” (Teva Pharmaceutical Industries Ltd., priority 2014, published 2018).

Assay: in vivo
Settings: male, C57BL/6, mouse, po, 50 mg/kg
Protocol: For all PO administration groups: 1% MC in water (all PO formulations were made just prior to use).
Fasted overnight and fed 4 hr post dose, free access to water
• 1. For plasma samples: An aliquot of 30 μL plasma sample was added with 150 μL ACN which contains IS (Dexamethasane 40 ng/mL, 5 ng/mL) for protein precipitation. The mixture was vortexed for 2 rain and centrifuged at 12000 rpm for 5 min. The 2 μL supernatant was injected into LC-MS/MS. • 2. For diluted plasma samples: An aliquot of 10 μL plasma sample was added with 90 μL blank plasma to obtain the diluted plasma samples, and the sample dilution factor is 10. An aliquot of 10 μL 10-folder-diluted plasma sample was added with 40 μL blank plasma to obtain the diluted plasma samples, and the sample dilution factor is 50. The exaction procedure for diluted samples was same as those for non-diluted samples.
The animals were restrained manually at the designated time points. Approx. 150 μL of blood samples were taken from the animals into K2EDTA tubes via retro-orbital puncture or cardiac puncture for terminal bleeding under anesthesia with Isoflurane. Blood sample was put on ice and centrifuged at 2000 g for 5 min (4° C.) to obtain plasma sample within 15 minutes. Plasma samples were snap frozen by placing into dry-ice.
The plasma samples were stored at approximately −70° C. until analysis. The backup samples are discarded after two months unless specified. The unused dosing solutions are discarded within 1 week after completion of the study.

CC(C)c1c(C(=O)Nc2ccccc2)c(-c2ccccc2)c(-c2ccc(F)cc2)n1CC[C@@H](O)C[C@@H](O)CC(=O)O [Atorvastatin, atorvastatin]
AUCINF: 330 ng·h/mL | AUClast: 317 ng·h/mL | AUC(0-inf) (AUCINF): 268 ng·h/mL | AUC(0-t) (AUClast): 258 ng·h/mL | Cmax (Cmax): 361 ng/mL | Tmax (Tmax): 15 min
